Laboratory results reported in publication PMC8064395.
No constants are given. Whether binding was seen depends on the method and setting. Binding seen in cells or lysates may run through a third protein. A yes stands for co-enrichment or nearness to the bait. Other partners may have been found. Where a sequence is shown, tags or fusion partners need not be part of it.

The chains behind the UniProt entries cited, without tags or fusion partners.
UniProt Q87L07: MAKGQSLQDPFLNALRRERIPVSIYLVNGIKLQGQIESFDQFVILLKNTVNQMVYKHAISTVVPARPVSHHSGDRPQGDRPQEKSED
UniProt Q87RR7: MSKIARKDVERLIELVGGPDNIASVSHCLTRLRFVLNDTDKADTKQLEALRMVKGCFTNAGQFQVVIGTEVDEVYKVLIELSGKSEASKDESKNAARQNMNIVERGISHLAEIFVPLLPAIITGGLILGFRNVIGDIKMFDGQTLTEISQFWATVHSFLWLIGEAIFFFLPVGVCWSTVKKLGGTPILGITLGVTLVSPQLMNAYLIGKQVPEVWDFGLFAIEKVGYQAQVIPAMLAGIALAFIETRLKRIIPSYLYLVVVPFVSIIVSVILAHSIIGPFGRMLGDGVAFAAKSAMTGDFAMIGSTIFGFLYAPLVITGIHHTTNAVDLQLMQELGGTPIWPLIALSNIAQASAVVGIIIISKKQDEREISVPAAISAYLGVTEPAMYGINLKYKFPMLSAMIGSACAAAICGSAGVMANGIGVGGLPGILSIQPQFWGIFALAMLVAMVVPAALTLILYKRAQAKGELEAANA
UniProt Q87RK1: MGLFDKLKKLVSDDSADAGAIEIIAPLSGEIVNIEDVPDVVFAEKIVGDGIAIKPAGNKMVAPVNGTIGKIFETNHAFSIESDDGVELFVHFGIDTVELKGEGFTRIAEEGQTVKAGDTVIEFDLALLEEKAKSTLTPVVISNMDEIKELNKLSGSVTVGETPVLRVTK

Each substance was assayed against T1, hexahistidine-tagged VP0610 (Vibrio parahaemolyticus RIMD2210633) (UniProt Q87S14) (assay: affinity purification with mass spectrometry; His-VP0610 immobilized on Ni Sepharose; V. parahaemolyticus WT protein loaded; eluted with different elution buffer concentrations; SDS-PAGE, silver staining; bands identified by mass spectrometry; binding buffer 20 mM sodium phosphate, 500 mM sodium chloride, 30 mM imidazole, pH 7.4; only the target purified).
T1 sequence: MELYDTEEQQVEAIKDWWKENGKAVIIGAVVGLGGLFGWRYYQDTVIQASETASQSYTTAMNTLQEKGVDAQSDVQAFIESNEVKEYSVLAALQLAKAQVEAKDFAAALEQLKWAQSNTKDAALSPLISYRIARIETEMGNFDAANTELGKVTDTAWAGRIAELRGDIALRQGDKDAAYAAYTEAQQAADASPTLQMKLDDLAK
With “RNA binding protein (Hfq) (from UniProt Q87L07 1-87)” the binding was “binds”. With “VP0710, sugar PTS system EIIA component (from UniProt Q87RR7 1-474)” the binding was “binds”. For “VP0793, sugar PTS system EIIA component (from UniProt Q87RK1 1-169)”, the binding was “binds”. adenylate cyclase (CyaA) was tested, and the binding was “binds”.
